The other results are listed elsewhere or left out. Shown are side measurements of this screen, not its main read-out; they come without a call. Most of these compounds were active or inconclusive in the main read-out, so they are no random draw. The note in brackets gives the kind of curve behind each potency; many fits are weak.
Assay: qHTS Assay for Lipid Storage Modulators in Drosophila S3 Cells;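 on cell number change: cells counted by Cell Tracker Red CMTPX staining in the red channel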
Settings: BODIPY lipid droplet fluorescence, 18-24 h; for cell number change: measured here: cell count max response, cells fed with added oleic acid
Method in brief: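 Drosophila S3 cells loaded with oleic acid (400 uM, as added) and compounds at several concentrations; lipid droplets imaged by 488-nm laser-scanning cytometry, 500–530 nm intensity and object ratio to cell channel. Percent activity normalized to 20 uM Triacsin C.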

[1] = measured here: cell number channel AC50, cells fed with added oleic acid
[2] = measured here: lipid fluorescence (Fed channel) AC50, cells fed with added oleic acid

SMILES	cell number change	AC50 [1]	AC50 [2]
CCCCOc1ccc(Nc2cc(Cl)ccc2C(=O)O)cn1	-30.3%	14.6 µM [falling, single point]	0.517 µM [falling, single point]
COc1ccc(CNCCC(c2ccccc2)c2ccc(OC(C)C)cc2)cc1OC (stereo unspecified)	-61.1%	29.1 µM [falling, single point]	29.1 µM [falling, single point]
COC(=O)C1=C(C)NC(=O)/C1=C\c1cc(C)n(-c2ccc(F)cc2)c1C	-21.3%		0.116 µM [rising, full curve, poor fit]
COc1cccc(C(=O)N(Cc2ccc3c(c2)OCO3)Cc2nc3ccccc3c(=O)[nH]2)c1	35.1%	29.1 µM [rising, single point]	
CCOc1ccccc1N(CC(=O)Nc1cc(OC)ccc1OC)S(C)(=O)=O		1.46 µM [rising, partial curve]	
COC(=O)c1[nH]c2cc(OC)ccc2c1NC(=O)CCN1CCN(Cc2ccc3c(c2)OCO3)CC1	22.9%		14.6 µM [rising, partial curve]
COc1ccc(NC(=O)CSc2nnc(-c3ccccn3)n2-c2ccccc2)cc1OC	45.5%	0.366 µM [rising, full curve]	0.092 µM [rising, full curve]
O=c1cc(-c2cccnc2)oc2c1ccc1ccccc12	-16.9%		0.103 µM [rising, full curve]
Cc1ccc(C)c(CSC2=NN3CCCC(=O)N=C3S2)c1	34.9%	25.9 µM [rising, single point]	20.6 µM [rising, single point]
CCN(CC1CCCO1)C(=O)c1cc(COc2ccc(OC)cc2Cl)on1 (stereo unspecified)		6.51 µM [rising, single point]	6.51 µM [rising, single point]
COc1ccccc1CNC(=O)C1CCCN(S(=O)(=O)c2cccc3cccnc23)C1 (stereo unspecified)			6.51 µM [rising, single point]
COc1ccc(OCCSc2nnc(CCNC(=O)c3ccc(OC)cc3)n2C)cc1	-11%		11.6 µM [falling, partial curve, poor fit]
CC(=O)c1cccc(-n2nnnc2SCC(=O)NNC(=O)C2CCCCC2)c1	-24.5%	0.651 µM [falling, full curve, poor fit]	6.51 µM [rising, single point]
Cc1ccc(NC(=O)/C(=C\C=C\c2ccccc2)NC(=O)c2ccccc2)cc1		1.64 µM [rising, partial curve, poor fit]	0.92 µM [rising, partial curve]

Two compounds from above with just AC50 [1] and cell number change:
SMILES | AC50 [1] | cell number change
COc1cccc(C(=O)N(Cc2ccc3c(c2)OCO3)Cc2nc3ccccc3c(=O)[nH]2)c1 | 29.1 µM [rising, single point] | 35.1%
Cc1ccc(NC(=O)/C(=C\C=C\c2ccccc2)NC(=O)c2ccccc2)cc1 | 1.64 µM [rising, partial curve, poor fit] | 

From PubChem BioAssay AID2685 (National Center for Advancing Translational Sciences (NCATS), 2010)
